PubChem BioAssay AID743454 | Peter MacCallum Cancer Centre – 2014
Here is a random part of about 18,000 reagents tested. 450 of all reagents (2.5%) count as active. 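Single biological run; no consistent viability z cut-off exists, so the class columns, not z-scores, define the calls.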

Assay: 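Genes whose loss kills vorinostat-resistant colon cancer cells under vorinostat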 (primary screen)
Cell system: human HCT116-VR colon cancer cells, selected for vorinostat resistance
Reagent: siRNA pool against human genes, 40 nM siRNA pool
Time to read-out: vorinostat for 24 h, read-out about 72 h after transfection
Conditions: vorinostat at 2.5 µM final
Measured: 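Two measures, CellTiter-Fluor viability and luminescent caspase 3/7 activity, each as fold change against same-plate mock wells, mean of duplicates, then screen-wide robust z-score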
Direction: viability robust z-score: higher = more viable cells than screen typical; caspase robust z-score: higher = more caspase 3/7 activity than screen typical
Call rule: 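a knock-down is a hit when classed RV1 or RV2 for lowered viability, or CA1 or CA2 for caspase activation; those lethal without drug were dropped; hits were retested singly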

target gene | viability hit class | caspase hit class | viability robust z-score | caspase robust z-score | outcome
MAL | no change | no change | -0.41 | -0.18 | inactive
ARF4 | no change | no change | 0.34 | -0.38 | inactive
ADAM22 | no change | no change | 1.3 | 0.16 | inactive
PLIN1 | no change | no change | 0.65 | -0.05 | inactive
MRPS18A | no change | no change | 0.04 | 0.6 | inactive
UPK3A | no change | no change | 0.7 | -0.1 | inactive
FBXW11 | no change | no change | 0.98 | 1.18 | inactive
EME1 | no change | no change | -0.9 | 3.65 | inactive
ZNF519 | no change | no change | 0.46 | -0.82 | inactive
MOCS3 | no change | no change | -1.17 | 0.32 | inactive
CSNK1E | no change | no change | -1.3 | -0.75 | inactive
AURKAIP1 | no change | no change | 0.86 | -0.81 | inactive
SLC3A1 | no change | no change | 1.02 | -0.86 | inactive
TMSB15A | no change | no change | 0.48 | 0.29 | inactive
EXOC5 | no change | no change | -1.72 | 2.92 | inactive
TRIM50 | no change | no change | 0.7 | -0.56 | inactive
PRM2 | no change | no change | -0.06 | 4.1 | inactive
XPOT | no change | no change | -0.28 | -0.14 | inactive
ZNF668 | no change | no change | 0.2 | -1.04 | inactive
PPFIA1 | no change | no change | 0.86 | 0.09 | inactive
RNF20 | no change | no change | 0.14 | 1.34 | inactive
TINF2 | no change | no change | -1.65 | 0.27 | inactive
NRN1 | no change | no change | 0.08 | 1.08 | inactive

2 entries from above, showing only “viability hit class”.
FBXW11 = no change
EME1 = no change
